# Measurements as given in the supplement of paper PMC12889115.
# Some of the results follow. These are raw signals, not scaled to a control.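 Primary screen: polymyxin B was added at a level permeabilizing Salmonella outer membranes while sparing inner membranes. DMSO wells, both with and without polymyxin B, established maximum growth. Plate-to-plate variation meant each plate was ranked on its own, and the lowest-OD600 compounds were selected as hits.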
# Test system: Salmonella enterica serovar Typhimurium SL1344
# Experiment: bacterial growth OD600 after 18 h with compound and polymyxin B; higher = more bacterial growth (less inhibition)
# Conditions: 50 µM, Mueller-Hinton broth
Structure (SMILES),bacterial growth OD600 (polymyxin B 1 µg/mL),bacterial growth OD600 (polymyxin B 0.75 µg/mL)
Cc1ccccc1CCC1CCCN(C(=O)CCN2CCCCC2=O)C1 (stereo not drawn),0.978,–
COc1cccc(-c2ccc(NC(=O)C3CCCN(CCCSC)C3)cc2)c1 (stereo not drawn),–,0.58
COCCC(=O)NCc1cccnc1Oc1ccccc1,0.974,–
COCCN1CCN(Cc2cn(-c3ccccc3)nc2-c2cccc(OC)c2)CC1,0.918,–
Cc1oc(-c2ccc(C(F)(F)F)cc2)nc1CN1CCSCC1,0.658,–
Cc1nc(N2CCCCCCC2)ncc1C(C)NCc1ccco1 (stereo not drawn),–,0.611
CN1N=C(C(=O)NCc2cccnc2N(C)Cc2ccccc2)CCC1=O,–,0.677
O=C(NCc1cccc(Cl)c1)C1CCC(=O)N(CCCN2CCOCC2)C1 (stereo not drawn),0.963,–
CC(C)(C)CN1CCCC2(CCN(C(=O)CSc3ccccc3)C2)C1=O (stereo not drawn),0.926,–
CC(C)C(NC(=O)c1ccccn1)c1nnc2n1CCN(C(=O)CCC(F)(F)F)CC2 (stereo not drawn),–,0.889
CCCN(Cc1nc(-c2ccc(OC)c(C)c2OC)oc1C)CC1CCCO1 (stereo not drawn),–,0.728
Cc1ccccc1Oc1ncccc1CNCc1cccn1-c1cccnc1,0.849,–
CN(CC1(O)CCCN(Cc2ccc(F)cc2)C1=O)C1CCOCC1 (stereo not drawn),0.957,–
COc1ccc(OC)c(CNC2COc3c(cccc3OC)C2)c1 (stereo not drawn),–,0.829
COC(=O)c1c(S(=O)(=O)Nc2ccc(C)cc2)sc2c1CCN(C(=O)CC1CCCC1)C2,–,0.005
C=CCNC(=O)N1CCCC1C(=O)Nc1ccccc1-c1ccc(OC)cc1 (stereo not drawn),–,0.823
CN(Cc1cccc(-n2cccn2)c1)Cc1nc(-c2cccc(Cl)c2)no1,0.807,–

# Looked up above:
# bacterial growth OD600 (polymyxin B 0.75 µg/mL), COc1cccc(-c2ccc(NC(=O)C3CCCN(CCCSC)C3)cc2)c1 (stereo not drawn) is entered as 0.58
# bacterial growth OD600 (polymyxin B 1 µg/mL), COCCN1CCN(Cc2cn(-c3ccccc3)nc2-c2cccc(OC)c2)CC1 is entered as 0.918

# Additional structures

Structure (SMILES),bacterial growth OD600 (polymyxin B 1 µg/mL),bacterial growth OD600 (polymyxin B 0.75 µg/mL)
Cc1cccnc1-c1cccc2c1OC(CNC(=O)CCC(C)C)C2 (stereo not drawn),–,0.824
CCOC(=O)C1(Cc2ccc(Cl)cc2)CCN(C(=O)c2cccc(OC)c2)CC1,0.125,–
COC(=O)c1cccc(C(=O)N2CCc3onc(-c4ccccc4F)c3C2)c1,–,0.447
Cc1csc(C(C)N(C)C(=O)c2csc3nc(-c4ccccc4)cn23)n1 (stereo not drawn),0.903,–
CC#CCN1C(=O)NC(CCc2ccccc2)(C2CCN(C/C=C/C(C)C)CC2)C1=O (stereo not drawn),–,0.851
O=C(Cc1ccc2c(c1)OCO2)N(Cc1ccncc1)Cc1cccc(OCCc2ccc(F)cc2)c1,–,-0.004
COc1cc(CN2CCN(Cc3ccc(C)cc3)C(CCO)C2)ccc1F (stereo not drawn),0.81,–
CCNC(=O)N1CCCC1C(=O)Nc1cccc(-n2cccn2)c1 (stereo not drawn),0.913,–
CN(C)C(=O)CCC(=O)N1CCc2onc(-c3ccc(Cl)cc3)c2C1,–,0.822
COc1ccc(NC(=O)CCC2CCCN(C(=O)CCn3cncn3)C2)cc1Cl (stereo not drawn),0.99,–
Cc1nc(CCNC(=O)c2coc(Cn3cnc4ccccc43)n2)sc1C,1.27,–
O=C(c1nccc2ccccc12)N1CCCC(Nc2ccccc2)C1 (stereo not drawn),1.31,–
CCOc1ccccc1CN1CCC(n2nccc2NC(=O)c2ccccc2)CC1,0.807,–
COc1ccc(NC(=O)CCC2CCCN(C(=O)CCc3scnc3C)C2)cc1Cl (stereo not drawn),0.933,–
CCN(CC)C1CCN(C(=O)c2csc3nc(-c4ccccc4Cl)cn23)C1 (stereo not drawn),0.834,–
CCCn1c(C)c(CC(=O)N2CCC[C@H]2CO)c2c1CC(C)(C)CC2=O,–,0.824
